PubChem BioAssay AID602196, INSERM, 2012
Test: 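Genes whose knock-down alters cisplatin killing of lung cancer cells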. System: human A549 lung cancer cells. Knock-down reagent: siRNA pair against human genes. Time to read-out: 48 h transfection before cisplatin; time from cisplatin to read-out not stated. Conditions: cisplatin at a dose killing half of control-siRNA cells; exact dose and duration not given. Read-out: 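Shift in cisplatin death relative to control siRNA, from -50 (all cells die) to +50 (no cells die); siRNAs harmful on their own scored 0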. Scale: two-siRNA summed score (-2 to +2): higher = both siRNAs protect from cisplatin killing; -2 means both sensitise. Hit rule: 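Each siRNA scores 0 if harmful alone by LDH or WST-1, otherwise +1 if it reduces and -1 if it increases cisplatin killing; a gene is active when both siRNAs agree (sum +2 or -2)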. Meaning of the calls: active = both siRNAs shift cisplatin killing the same way; inactive = no consistent shift, or siRNA harmful alone.
The deposit covers about 23,000 reagents; shown is a part drawn at random. Of all reagents, 455 (2%) are marked active. 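Active includes both protection and sensitisation; some change values fall well beyond the stated -50 to +50 range.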 Reagents against one gene are numbered here. Further read-outs or replicates are left out here. No sequences are given here. The record does not give: the amount of reagent.

two-siRNA summed score (-2 to +2), by gene knocked down and reagent
TLE2: #1 0 inactive
KRTAP4-11: #1 0 inactive
NELFA: #1 0 inactive
AKAP19: #1 0 inactive
LOC440291: #1 -1 inactive
ZNF335: #1 0 inactive
POU2F1: #1 0 inactive
PCDHA3: #1 0 inactive
NR2E1: #1 -1 inactive
RORC: #1 0 inactive
C10orf90: #1 0 inactive
SH3RF1: #1 0 inactive
MAP2K3: #1 1 inactive
GPR15: #1 0 inactive
ANKRA2: #1 0 inactive
LOC441352: #1 0 inactive
SPAG16: #1 0 inactive
DNHD1: #1 0 inactive; #2 0 inactive
KIAA0819: #1 0 inactive
LOC440031 (retired record): #1 0 inactive
KCNK6: #1 0 inactive
INCENP: #1 0 inactive

Reformatted: entries from further up.
gene knocked down | reagent no. | two-siRNA summed score (-2 to +2) | Outcome
DNHD1 | 1 | 0 | inactive
DNHD1 | 2 | 0 | inactive
